Laboratory results: patent US11124480B2, “Heterocyclic compound” (Sumitomo Chemical Company, Limited, priority 2016, dated 2021)
Some results were stated once for a whole list of compounds, not compound by compound.

Test system: cucurbit leaf beetles (Aulacophora femoralis)
Experiment: Test Example 6: spray on cucumber seedling, cucurbit leaf beetle larvae
Assay type: in vivo
Conditions: 500 ppm, spray 10 mL/seedling on cucumber, second instar larvae, after 5 days, 25° C.

Q: With `CCS(=O)(=O)c1cccnc1-c1ccc(-c2cccc(C(F)(F)F)c2)nn1` [Compound 4] as the molecule, how does the morality read?
A: ≥ 80%

Q: How did the morality turn out when `CCS(=O)(=O)c1cccnc1-c1ccc(-c2ccc(C(F)(F)F)cc2)nn1` [Compound 5] was run?
A: ≥ 80%
